# Assay results from PubChem BioAssay AID248 (DTP/NCI, 2004).
# The list shows only some results of the screen, not a fair sample: it is rich in T/C values a quarter to a half above the control, in often repeated tests (any T/C) and in doses without a T/C. Further doses and runs are listed elsewhere. T/C gives the treated animals as a percentage of the vehicle group. Some doses have a count of surviving animals in place of a T/C: the source files T/C as zero there, which appears to mark a toxic dose or a test without result, not a measured value. Some doses without a T/C left all or most animals alive at the check, yet need not have been tolerated: survival well below the control is almost never listed, so the zero probably covers shortened survival too. Counts of survivors are from the toxicity check (mostly the fifth day) where no day follows; animals may have died later. Schedules are NCI's codes, read here as Q, the interval in days (D) or hours (H), X, the number of doses. Some schedules carry Z or #; the key to these is not given. For survival time, this PubChem deposit counts one and a half times the control or more as active, and values a quarter to a half above the control carry no call in these data; other NCI protocols may use other cut-offs.
# Test system: L1210 leukemia ip in BDF1 mice, survival T/C
# Assay: NCI In Vivo Anticancer Drug Screen. Data for tumor model L1210 Leukemia (intraperitoneal) in B6D2F1 (BDF1) mice
# Conditions: T/C endpoint: mean survival time, higher T/C = longer survival
# [1] = dose: 400.0 mg/kg/injection, schedule: Q04DX002 (ip), vehicle: Klucel (hydroxypropylcellulose) (HPC)
# [2] = dose: 400.0 mg/kg/injection, schedule: Q04DX003 (ip), vehicle: Klucel (hydroxypropylcellulose) (HPC)
# [3] = dose: 40.0 mg/kg/injection, schedule: Q01DX001 (ip), vehicle: carboxymethylcellulose (CMC)
# [4] = dose: 100.0 mg/kg/injection, schedule: Q04DX003 (ip), vehicle: saline with Tween-80
# [5] = dose: 200.0 mg/kg/injection, schedule: Q04DX003 (ip), vehicle: saline with Tween-80
# [6] = dose: 400.0 mg/kg/injection, schedule: Q04DX003 (ip), vehicle: saline with Tween-80
# [7] = dose: 100.0 mg/kg/injection, schedule: Q01DX009 (ip), vehicle: Klucel (hydroxypropylcellulose) (HPC)
# [8] = dose: 400.0 mg/kg/injection, schedule: Q01DX009 (ip), vehicle: Klucel (hydroxypropylcellulose) (HPC)
# [9] = dose: 100.0 mg/kg/injection, schedule: Q01DX009 (ip), vehicle: saline
# [10] = dose: 80.0 mg/kg/injection, schedule: Q01DX001 (ip), vehicle: carboxymethylcellulose (CMC)
# [11] = dose: 200.0 mg/kg/injection, schedule: Q01DX001 (ip), vehicle: carboxymethylcellulose (CMC)
# [12] = dose: 400.0 mg/kg/injection, schedule: Q01DX001 (ip), vehicle: carboxymethylcellulose (CMC)
# [13] = dose: 200.0 mg/kg/injection, schedule: Q01DX009 (ip), vehicle: Klucel (hydroxypropylcellulose) (HPC)
# [14] = dose: 200.0 mg/kg/injection, schedule: Q04DX003 (ip), vehicle: saline
# [15] = dose: 50.0 mg/kg/injection, schedule: Q01DX009 (ip), vehicle: saline with Tween-80
# [16] = dose: 400.0 mg/kg/injection, schedule: Q04DX003 (ip), vehicle: saline
# [17] = dose: 400.0 mg/kg/injection, schedule: Q01DX009 (ip), vehicle: saline with Tween-80
# [18] = dose: 100.0 mg/kg/injection, schedule: Q01DX009 (ip), vehicle: saline with Tween-80
smiles,measurement,setting,value
CCOC(=O)c1ccc(N(Cc2cccc([N+](=O)[O-])c2)S(=O)(=O)c2ccc(C)cc2)cc1,survivor count,"dose: 300.0 mg/kg/injection, schedule: Q01DX001 (ip), vehicle: saline with Tween-80",6 of 6
CCCCCCCCCN=C(N)CSSCC(N)=NCCCCCCCCC,survivor count,"dose: 10.0 mg/kg/injection, schedule: Q04DX002 (ip), vehicle: Klucel (hydroxypropylcellulose) (HPC)",0 of 3
same,survivor count,"dose: 20.0 mg/kg/injection, schedule: Q04DX002 (ip), vehicle: Klucel (hydroxypropylcellulose) (HPC)",0 of 3
same,survivor count,"dose: 40.0 mg/kg/injection, schedule: Q04DX002 (ip), vehicle: Klucel (hydroxypropylcellulose) (HPC)",0 of 3
same,survivor count,"dose: 100.0 mg/kg/injection, schedule: Q01DX001 (ip), vehicle: Klucel (hydroxypropylcellulose) (HPC)",0 of 3
same,survivor count,"dose: 100.0 mg/kg/injection, schedule: Q04DX002 (ip), vehicle: Klucel (hydroxypropylcellulose) (HPC)",0 of 3
same,survivor count,"dose: 200.0 mg/kg/injection, schedule: Q01DX001 (ip), vehicle: Klucel (hydroxypropylcellulose) (HPC)",0 of 3
same,survivor count,"dose: 200.0 mg/kg/injection, schedule: Q04DX002 (ip), vehicle: Klucel (hydroxypropylcellulose) (HPC)",0 of 3
same,survivor count,"dose: 400.0 mg/kg/injection, schedule: Q01DX001 (ip), vehicle: Klucel (hydroxypropylcellulose) (HPC)",0 of 3
same,survivor count,[1],0 of 3
O=C(OCC(Cl)(Cl)Cl)OCC(Cl)(Cl)Cl,survivor count,[2],4 of 6
O=C(CBr)Nc1cccc(S(=O)(=O)F)c1,survivor count,"dose: 20.0 mg/kg/injection, schedule: Q01DX001 (ip), vehicle: carboxymethylcellulose (CMC)",3 of 6
same,survivor count,[3],3 of 6
same,survivor count,"dose: 75.0 mg/kg/injection, schedule: Q01DX001 (ip), vehicle: carboxymethylcellulose (CMC)",0 of 6
same,survivor count,"dose: 150.0 mg/kg/injection, schedule: Q01DX001 (ip), vehicle: carboxymethylcellulose (CMC)",0 of 6
same,survivor count,"dose: 300.0 mg/kg/injection, schedule: Q01DX001 (ip), vehicle: carboxymethylcellulose (CMC)",0 of 6
CCN(CC)c1ccc(N(C(C)=O)C(C)=O)cc1,survivor count,[4],6 of 6
same,survivor count,[5],1 of 6
same,survivor count,[6],0 of 6
CC(=O)CC(=O)Nc1cc(Cl)ccc1C,survivor count,[7],5 of 6
same,survivor count,[8],4 of 6
O=C(O)c1ccc(OCCOc2ccccc2)cc1,T/C,"dose: 100.0 mg/kg/injection, schedule: Q04DX003 (ip), vehicle: saline sonified",127 % of control
CCC(CC)OC(=O)Nc1cccc(OC(=O)NC)c1,survivor count,[6],3 of 6
N#CCN1CCCCC1,survivor count,[9],0 of 6
CO[C@@H]1CCCCCC[C@H]1[Hg][Cl],survivor count,"dose: 50.0 mg/kg/injection, schedule: Q01DX001 (ip), vehicle: carboxymethylcellulose (CMC)",0 of 4
same,survivor count,[10],0 of 4
same,survivor count,"dose: 100.0 mg/kg/injection, schedule: Q01DX001 (ip), vehicle: carboxymethylcellulose (CMC)",0 of 4
same,survivor count,[11],0 of 4
same,survivor count,[12],0 of 4
OCCC1CC1=C1CC1 (stereo not drawn),survivor count,[13],0 of 6
C[CH2][Sn]([Cl])([CH2]C)[O][Sn]([Cl])([CH2]C)[CH2]C,survivor count,"dose: 50.0 mg/kg/injection, schedule: Q04DX003 (ip), vehicle: saline",0 of 3
same,survivor count,"dose: 100.0 mg/kg/injection, schedule: Q04DX003 (ip), vehicle: saline",0 of 3
same,survivor count,[14],0 of 3
C1=C(c2ccccc2)N(C2CCCCC2)C(c2ccccc2)=CN1Cc1ccccc1,survivor count,[1],3 of 3
CC1(C)CN(Cc2ccccc2)C(C)(C)CN1N,survivor count,[15],3 of 6
same,survivor count,[4],2 of 6
same,survivor count,[5],0 of 6
same,survivor count,[6],0 of 6
CC1=CC(C)(C)NC(=S)N1c1ccccc1,survivor count,[7],6 of 6
CCCCCCCCCC(=O)N1CCOCC1,survivor count,[9],2 of 6
same,survivor count,[14],5 of 6
same,survivor count,[16],6 of 6
Cn1nc(NC(=O)C(F)(F)F)c2ncc(-c3ccccc3)nc21,survivor count,[17],3 of 6
O=NN1CCN(N=O)CC1,survivor count,"dose: 25.0 mg/kg/injection, schedule: Q01DX009 (ip), vehicle: saline with Tween-80",2 of 6
same,survivor count,[15],3 of 6
same,survivor count,[18],0 of 6
same,survivor count,[11],3 of 6
same,survivor count,[5],0 of 6
same,survivor count,[12],3 of 6
same,survivor count,[6],0 of 6
CC(=NC1CCCCC1)Nc1ccc(NC(=O)c2ccc(C(=O)Nc3ccc(NC(C)=NC4CCCCC4)cc3)cc2)cc1,survivor count,"dose: 120.0 mg/kg/injection, schedule: Q01DX Z (ip), vehicle: carboxymethylcellulose (CMC)",6 of 6
CCOC(=O)N1C(=O)NC(=O)C1c1ccc(Cl)cc1 (stereo not drawn),survivor count,"dose: 400.0 mg/kg/injection, schedule: Q01DX001 (ip), vehicle: saline",1 of 4
CCCN(CCC)CCC#N,survivor count,"dose: 267.0 mg/kg/injection, schedule: Q01DX009 (ip), vehicle: saline with Tween-80",2 of 6
same,survivor count,[6],1 of 6
CC(C)=CCN(CC=C(C)C)CCC(C#N)(c1ccc2ccccc2c1)C(C)C (stereo not drawn),survivor count,[13],6 of 6
same,survivor count,[2],6 of 6
CCOC(=O)CCC(NC(=O)c1cnc(N)s1)C(=O)OCC (stereo not drawn),T/C,"dose: 100.0 mg/kg/injection, schedule: Q01DX001 (ip), vehicle: saline with Tween-80",125 % of control
CN1CCN(c2ccc3nnc(Cl)n3n2)CC1,survivor count,[4],3 of 4
same,survivor count,[5],0 of 4
Cc1cc(SCC(=O)c2ccc(Br)cc2)cc(C)[o+]1,survivor count,[16],3 of 6
Cc1[o+]c(C)c2c(c1C)-c1ccccc1C2=O,survivor count,[17],2 of 6
O=C1NC(=O)C([N+](=O)[O-])=C(O)C1=O,survivor count,[16],1 of 6
O=C(/C=C/c1ccc2c(c1)OCO2)/C=C/c1ccc2c(c1)OCO2,survivor count,"dose: 400.0 mg/kg/injection, schedule: Q01DX009 (ip), vehicle: saline",4 of 6
N#C/C=C/C=C/C#N,survivor count,"dose: 300.0 mg/kg/injection, schedule: Q01DX001 (ip), vehicle: other",1 of 6
CC(=O)c1ccc(NC(N)=S)cc1,survivor count,"dose: 160.0 mg/kg/injection, schedule: Q01DX009 (ip), vehicle: saline with Tween-80",2 of 6
same,survivor count,"dose: 320.0 mg/kg/injection, schedule: Q01DX009 (ip), vehicle: saline with Tween-80",0 of 6
CC[NH-].CC[NH-].[I][Pt+2][I],survivor count,[9],2 of 6
same,survivor count,[14],6 of 6
same,survivor count,[16],4 of 6
CCCCCCCCCC(=O)N/N=C/c1ccco1,survivor count,[8],4 of 6
CCOC(=O)CSc1nc2nc(Cl)c(Cl)nc2[nH]1,survivor count,[17],3 of 6
Cc1nc(N)c(N)nc1C,survivor count,[18],3 of 6
same,survivor count,[4],3 of 6
O=C(c1ccc(C(=O)N2CC2)cc1)N1CC1,survivor count,[3],3 of 6
same,survivor count,[10],3 of 6
same,survivor count,"dose: 160.0 mg/kg/injection, schedule: Q01DX001 (ip), vehicle: carboxymethylcellulose (CMC)",0 of 6
CCN(CC)CCCNc1ncnc2c1C(c1ccccc1)c1ccccc1-2 (stereo not drawn),survivor count,"dose: 80.0 mg/kg/injection, schedule: Q01DX001 (ip), vehicle: saline",1 of 4
Nc1nc2c(ncn2-c2ccc(NS(=O)(=O)c3cccc(S(=O)(=O)F)c3)cc2)c(=O)[nH]1,survivor count,"dose: 150.0 mg/kg/injection, schedule: Q01DX001 (ip), vehicle: Klucel (hydroxypropylcellulose) (HPC)",6 of 6
